From doi:10.1101/2024.08.13.607559

Target: T1, Mitochondrial ribosomal protein small subunit 34 (Mrps34), zebrafish (zebrafish (endogenous in 24hpf embryos)) (UniProt F1QEG6)
T1 sequence: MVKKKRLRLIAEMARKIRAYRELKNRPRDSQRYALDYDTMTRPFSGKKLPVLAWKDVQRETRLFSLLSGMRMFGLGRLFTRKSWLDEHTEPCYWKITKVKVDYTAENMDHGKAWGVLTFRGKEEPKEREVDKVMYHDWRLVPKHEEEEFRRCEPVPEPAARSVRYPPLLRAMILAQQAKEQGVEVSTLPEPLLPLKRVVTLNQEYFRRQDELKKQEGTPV
Assay: co-IP

binding	Substance
binds	cleaved C-terminal Foxg1 fragment (C-Foxg1), zebrafish (domain or fragment)
binds	full-length Foxg1, zebrafish

These are yes or no findings as the source states them, for the method shown. Binding seen in cells or lysates may run through a third protein. A result given as binding can be weak or reduced; the word gives no strength.
